# No constants are given. Whether binding was seen depends on the method and setting. Some results given as binding are weak or reduced against the parent protein; the word gives no strength.
# Amino acid sequences for entries named in this document (tags omitted). A change or cut given only in a name is not applied to a line headed by its entry.
# UniProt P87173: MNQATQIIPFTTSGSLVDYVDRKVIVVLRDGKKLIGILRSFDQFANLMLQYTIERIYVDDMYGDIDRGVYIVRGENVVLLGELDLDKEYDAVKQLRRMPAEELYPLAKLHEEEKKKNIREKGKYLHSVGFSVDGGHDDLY
# Target: Lsm1–7 complex (S. pombe) (UniProt P87173)
# Test: co-purification (Ni-NTA, heparin, gel filtration); PatMC coexpressed with Lsm1–7 in E. coli (pET-Duet); His6 on Lsm1 bound to Ni-NTA in 2 M NaCl, heparin column, TEV, Superdex 200 16/60 in 400 mM NaCl, 20 mM HEPES 7.0, 1 mM DTT
binder,measurement,value
"PatMC (middle and carboxy-terminal domains of Pat1, residues 296–754) (domain or fragment, UniProt O42958 296-754) LDEKRQKLERDHMLMAQCAGLMTRSDKSFIARIQISQLMSEDPESDDFYYRVYSIIRGRKPSEEEASHFIQTYLGPSNNRRRGRRSENPMQKLQQQLQRLVSSAKERPKATQLSLEGALGKIAVNTVRTPRQLLNVKRPTEPASSNSSLNNFSGFSTKKDVLHAIEKVYDLLLDFEQALRKASTLETTDQEQIDTWKTTLSEKLESIWKALYINESLEASSKTRPPFISIISHPKGMRLLPRLFPHLSKEQQISILKVVVYNFDSLDIVLRGTFDVNGELPLDVVSEMSSFTQFIIPPLLTIVNELDLETINNLFSQLLNRTNAVYLIQTKIGLSFLTLFISRAEILKQSGTVNQNEKEEWENTFNVMFNRVKGHFSTVFPPPNARAYADESYPWEFLAACATAASSEQHFTLVSETRDRVLDNIITSKRAPSEIAVVRISNVNLFLNAMGLDARQLSA",binding,binds

# — article PMC7491320
